# Reference: the supplement of paper PMC8728848
# The list shows a part of the results.
# B1: EfCBM33A (Enterococcus faecalis), Q838S1 (protein)
# chain: MKKSLLTIVLAFSFVLGGAALAPTVSEAHGYVASPGSRAFFGSSAGGNLNTNVGRAQWEPQSIEAPKNTFITGKLASAGVSGFEPLDEQTATRWHKTNITTGPLDITWNLTAQHRTASWDYYITKNGWNPNQPLDIKNFDKIASIDGKQEVPNKVVKQTINIPTDRKGYHVIYAVWGIGDTVNAFYQAIDVNIQ
# Columns and labels:
# Test in all cases: glycan array binding signal (z-score within array); higher = stronger binding
# Conditions in all cases: glycan notation: IUPAC condensed, linker removed
# [1] = target: Gal(b1-4)GlcNAc(b1-2)[Gal(b1-4)GlcNAc(b1-6)]Man(a1-6)[Gal(b1-4)GlcNAc(b1-2)Man(a1-3)]Man(b1-4)GlcNAc(b1-4)[Fuc(a1-6)]GlcNAc
# How it was run: (§1)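 The binding signal is a Z-score computed within each array. Data were drawn from 3228 arrays in the Consortium for Functional Glycomics database, restricted to those with a known protein sequence. Scores were averaged over arrays of the same protein sequence at different concentrations or buffers, and over linkers, and negative values can be taken as non-binding.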
# [2] = target: Gal(b1-4)GlcNAc(b1-2)[Gal(b1-4)GlcNAc(b1-6)]Man(a1-6)[GlcNAc(b1-4)][Gal(b1-4)GlcNAc(b1-2)Man(a1-3)]Man(b1-4)GlcNAc(b1-4)GlcNAc
# How it was run: as §1
# [3] = target: Gal(b1-4)GlcNAc(b1-2)[Gal(b1-4)GlcNAc(b1-6)]Man(a1-6)[GlcNAc(b1-4)][Gal(b1-4)GlcNAc(b1-2)[Gal(b1-4)GlcNAc(b1-4)]Man(a1-3)]Man(b1-4)GlcNAc(b1-4)[Fuc(a1-6)]GlcNAc
# How it was run: as §1
# [4] = target: Gal(b1-4)GlcNAc(b1-3)Gal(b1-3)GalNAc
# How it was run: as §1
# [5] = target: Gal(b1-4)GlcNAc(b1-3)Gal(b1-3)GlcNAc
# How it was run: as §1
# [6] = target: Gal(b1-4)GlcNAc(b1-3)Gal(b1-4)Glc
# How it was run: as §1
# [7] = target: Gal(b1-4)GlcNAc(b1-3)Gal(b1-4)GlcNAc
# How it was run: as §1
# [8] = target: Gal(b1-4)GlcNAc(b1-3)Gal(b1-4)GlcNAc(b1-2)Man(a1-3)[Gal(b1-4)GlcNAc(b1-3)Gal(b1-4)GlcNAc(b1-2)Man(a1-6)]Man(b1-4)GlcNAc(b1-4)GlcNAc
# How it was run: as §1
# [9] = target: Gal(b1-4)GlcNAc(b1-3)Gal(b1-4)GlcNAc(b1-2)Man(a1-3)[Gal(b1-4)GlcNAc(b1-3)Gal(b1-4)GlcNAc(b1-2)Man(a1-6)]Man(b1-4)GlcNAc(b1-4)[Fuc(a1-6)]GlcNAc
# How it was run: as §1
# [10] = target: Gal(b1-4)GlcNAc(b1-3)Gal(b1-4)GlcNAc(b1-2)[Gal(b1-4)GlcNAc(b1-3)Gal(b1-4)GlcNAc(b1-6)]Man(a1-6)[Gal(b1-4)GlcNAc(b1-3)Gal(b1-4)GlcNAc(b1-2)Man(a1-3)]Man(b1-4)GlcNAc(b1-4)GlcNAc
# How it was run: as §1
# [11] = target: Gal(b1-4)GlcNAc(b1-3)Gal(b1-4)GlcNAc(b1-2)[Gal(b1-4)GlcNAc(b1-3)Gal(b1-4)GlcNAc(b1-6)]Man(a1-6)[Gal(b1-4)GlcNAc(b1-3)Gal(b1-4)GlcNAc(b1-2)Man(a1-3)]Man(b1-4)GlcNAc(b1-4)[Fuc(a1-6)]GlcNAc
# How it was run: as §1
# [12] = target: Gal(b1-4)GlcNAc(b1-3)Gal(b1-4)GlcNAc(b1-3)Gal(b1-4)GlcNAc
# How it was run: as §1
# [13] = target: Gal(b1-4)GlcNAc(b1-3)Gal(b1-4)GlcNAc(b1-3)Gal(b1-4)GlcNAc(b1-2)Man(a1-3)[Gal(b1-4)GlcNAc(b1-3)Gal(b1-4)GlcNAc(b1-3)Gal(b1-4)GlcNAc(b1-2)Man(a1-6)]Man(b1-4)GlcNAc(b1-4)GlcNAc
# How it was run: as §1
# [14] = target: Gal(b1-4)GlcNAc(b1-3)Gal(b1-4)GlcNAc(b1-3)Gal(b1-4)GlcNAc(b1-2)Man(a1-3)[Gal(b1-4)GlcNAc(b1-3)Gal(b1-4)GlcNAc(b1-3)Gal(b1-4)GlcNAc(b1-2)Man(a1-6)]Man(b1-4)GlcNAc(b1-4)[Fuc(a1-6)]GlcNAc
# How it was run: as §1
# [15] = target: Gal(b1-4)GlcNAc(b1-3)Gal(b1-4)GlcNAc(b1-3)Gal(b1-4)GlcNAc(b1-2)[Gal(b1-4)GlcNAc(b1-3)Gal(b1-4)GlcNAc(b1-3)Gal(b1-4)GlcNAc(b1-6)]Man(a1-6)[Gal(b1-4)GlcNAc(b1-3)Gal(b1-4)GlcNAc(b1-3)Gal(b1-4)GlcNAc(b1-2)Man(a1-3)]Man(b1-4)GlcNAc(b1-4)[Fuc(a1-6)]GlcNAc
# How it was run: as §1
# [16] = target: Gal(b1-4)GlcNAc(b1-3)Gal(b1-4)GlcNAc(b1-3)Gal(b1-4)GlcNAc(b1-3)Gal(b1-4)GlcNAc(b1-2)Man(a1-3)[Gal(b1-4)GlcNAc(b1-3)Gal(b1-4)GlcNAc(b1-3)Gal(b1-4)GlcNAc(b1-3)Gal(b1-4)GlcNAc(b1-2)Man(a1-6)]Man(b1-4)GlcNAc(b1-4)GlcNAc
# How it was run: as §1
# [17] = target: Gal(b1-4)GlcNAc(b1-3)Gal(b1-4)GlcNAc(b1-3)Gal(b1-4)GlcNAc(b1-3)Gal(b1-4)GlcNAc(b1-2)Man(a1-3)[Gal(b1-4)GlcNAc(b1-3)Gal(b1-4)GlcNAc(b1-3)Gal(b1-4)GlcNAc(b1-3)Gal(b1-4)GlcNAc(b1-2)Man(a1-6)]Man(b1-4)GlcNAc(b1-4)[Fuc(a1-6)]GlcNAc
# How it was run: as §1
# [18] = target: Gal(b1-4)GlcNAc(b1-3)Gal(b1-4)GlcNAc(b1-3)Gal(b1-4)GlcNAc(b1-3)Gal(b1-4)GlcNAc(b1-2)[Gal(b1-4)GlcNAc(b1-3)Gal(b1-4)GlcNAc(b1-3)Gal(b1-4)GlcNAc(b1-3)Gal(b1-4)GlcNAc(b1-6)]Man(a1-6)[Gal(b1-4)GlcNAc(b1-3)Gal(b1-4)GlcNAc(b1-3)Gal(b1-4)GlcNAc(b1-3)Gal(b1-4)GlcNAc(b1-2)Man(a1-3)]Man(b1-4)GlcNAc(b1-4)[Fuc(a1-6)]GlcNAc
# How it was run: as §1
# [19] = target: Gal(b1-4)GlcNAc(b1-3)Gal(b1-4)GlcNAc(b1-3)Gal(b1-4)GlcNAc(b1-3)Gal(b1-4)GlcNAc(b1-3)Gal(b1-4)GlcNAc(b1-2)Man(a1-3)[Gal(b1-4)GlcNAc(b1-3)Gal(b1-4)GlcNAc(b1-3)Gal(b1-4)GlcNAc(b1-3)Gal(b1-4)GlcNAc(b1-3)Gal(b1-4)GlcNAc(b1-2)Man(a1-6)]Man(b1-4)GlcNAc(b1-4)GlcNAc
# How it was run: as §1
# [20] = target: Gal(b1-4)GlcNAc(b1-3)Gal(b1-4)GlcNAc(b1-3)Gal(b1-4)GlcNAc(b1-3)Gal(b1-4)GlcNAc(b1-3)Gal(b1-4)GlcNAc(b1-2)Man(a1-3)[Gal(b1-4)GlcNAc(b1-3)Gal(b1-4)GlcNAc(b1-3)Gal(b1-4)GlcNAc(b1-3)Gal(b1-4)GlcNAc(b1-3)Gal(b1-4)GlcNAc(b1-2)Man(a1-6)]Man(b1-4)GlcNAc(b1-4)[Fuc(a1-6)]GlcNAc
# How it was run: as §1
# [21] = target: Gal(b1-4)GlcNAc(b1-3)Gal(b1-4)GlcNAc(b1-3)Gal(b1-4)GlcNAc(b1-3)Gal(b1-4)GlcNAc(b1-3)Gal(b1-4)GlcNAc(b1-2)[Gal(b1-4)GlcNAc(b1-3)Gal(b1-4)GlcNAc(b1-3)Gal(b1-4)GlcNAc(b1-3)Gal(b1-4)GlcNAc(b1-3)Gal(b1-4)GlcNAc(b1-6)]Man(a1-6)[Gal(b1-4)GlcNAc(b1-3)Gal(b1-4)GlcNAc(b1-3)Gal(b1-4)GlcNAc(b1-3)Gal(b1-4)GlcNAc(b1-3)Gal(b1-4)GlcNAc(b1-2)Man(a1-3)]Man(b1-4)GlcNAc(b1-4)[Fuc(a1-6)]GlcNAc
# How it was run: as §1
# [22] = target: Gal(b1-4)GlcNAc(b1-3)Gal(b1-4)GlcNAc(b1-3)Gal(b1-4)GlcNAc(b1-3)Gal(b1-4)GlcNAc(b1-3)Gal(b1-4)GlcNAc(b1-3)Gal(b1-4)GlcNAc(b1-2)Man(a1-3)[Gal(b1-4)GlcNAc(b1-3)Gal(b1-4)GlcNAc(b1-3)Gal(b1-4)GlcNAc(b1-3)Gal(b1-4)GlcNAc(b1-3)Gal(b1-4)GlcNAc(b1-3)Gal(b1-4)GlcNAc(b1-2)Man(a1-6)]Man(b1-4)GlcNAc(b1-4)GlcNAc
# How it was run: as §1
# [23] = target: Gal(b1-4)GlcNAc(b1-3)Gal(b1-4)GlcNAc(b1-3)GalNAc
# How it was run: as §1
binder,measurement,setting,value
B1,glycan array binding signal (z-score),[1],-0.261
same,glycan array binding signal (z-score),[2],-1.46
same,glycan array binding signal (z-score),[3],-0.148
same,glycan array binding signal (z-score),[4],0.264
same,glycan array binding signal (z-score),[5],-0.608
same,glycan array binding signal (z-score),[6],1.37
same,glycan array binding signal (z-score),[7],-0.84
same,glycan array binding signal (z-score),[8],0.408
same,glycan array binding signal (z-score),[9],0.262
same,glycan array binding signal (z-score),[10],0.19
same,glycan array binding signal (z-score),[11],1.31
same,glycan array binding signal (z-score),[12],-0.24
same,glycan array binding signal (z-score),[13],1.45
same,glycan array binding signal (z-score),[14],0.858
same,glycan array binding signal (z-score),[15],-0.199
same,glycan array binding signal (z-score),[16],1.57
same,glycan array binding signal (z-score),[17],0.279
same,glycan array binding signal (z-score),[18],0.765
same,glycan array binding signal (z-score),[19],1.29
same,glycan array binding signal (z-score),[20],8.45
same,glycan array binding signal (z-score),[21],1.59
same,glycan array binding signal (z-score),[22],0.009
same,glycan array binding signal (z-score),[23],-0.446

# 2 entries drawn at random from the list so far:
binder,measurement,setting,value
B1,glycan array binding signal (z-score),[4],0.264
same,glycan array binding signal (z-score),[15],-0.199
